Measurements taken from PubChem BioAssay AID1671190 (National Center for Advancing Translational Sciences (NCATS), 2021).
In all, about 580,000 compounds went through this assay and about 6,100 (1.1%) were called active. The inconclusive results got no clear call from the source; some entries with a clear call stand among them for comparison. Calls come from the whole dose curve; as a rule, active = well fitted inhibition curve with a large enough effect; inconclusive = small, poorly fitted or top-dose-only effect, or another doubt; inactive = no such curve, though single readings can be large or run the other way. A potency beside an inconclusive call is a rough fit, not a confirmed value. Bridge positions count the residues as written; N and C are the ends. Square brackets hold non-standard residues; d marks the D form. Peptide text beside a SMILES is read from it. * marks the point of attachment. bishTyr = N[C@@H](CCCc1ccc(O)cc1)C(=O)O; Tigloyl = C/C=C(\C)C(=O)*; Dhb = C/C=C(\N)C(=O)O

By UniProt entry, the sequences of proteins in these tests, tags left out. Where a name states a change or a piece, a line headed by the entry shows the natural chain unless it says otherwise.
UniProt P18054: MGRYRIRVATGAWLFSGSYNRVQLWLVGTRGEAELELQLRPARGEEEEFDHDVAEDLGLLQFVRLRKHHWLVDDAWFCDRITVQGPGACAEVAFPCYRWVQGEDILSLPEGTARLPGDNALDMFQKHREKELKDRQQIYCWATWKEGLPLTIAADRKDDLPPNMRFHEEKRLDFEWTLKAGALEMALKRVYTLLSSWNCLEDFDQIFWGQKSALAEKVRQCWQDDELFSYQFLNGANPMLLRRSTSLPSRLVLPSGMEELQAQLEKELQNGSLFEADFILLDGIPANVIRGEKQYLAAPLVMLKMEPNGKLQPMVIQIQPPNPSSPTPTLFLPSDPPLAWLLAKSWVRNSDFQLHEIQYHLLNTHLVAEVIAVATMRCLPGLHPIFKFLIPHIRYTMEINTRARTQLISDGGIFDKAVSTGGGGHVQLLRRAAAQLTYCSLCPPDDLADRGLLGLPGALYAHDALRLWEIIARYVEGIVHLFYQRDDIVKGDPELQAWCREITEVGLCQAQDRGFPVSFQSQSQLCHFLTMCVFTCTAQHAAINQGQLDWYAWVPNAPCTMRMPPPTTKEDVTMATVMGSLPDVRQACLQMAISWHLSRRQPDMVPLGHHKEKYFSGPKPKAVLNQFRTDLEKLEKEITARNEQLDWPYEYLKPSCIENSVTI

Molecular target: Polyunsaturated fatty acid lipoxygenase ALOX12 (Homo sapiens) (UniProt P18054)
Experiment: Primary qHTS assay for inhibitors of human arachidonate 12S-lipoxygenase (ALOX12): Round 2
Conditions: purified 12hLO, xylenol orange hydroperoxide absorbance; activity change, negative = inhibition: at 108 µM (top of the series) unless noted
How it was run: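 Purified human 12hLO at 150 nM in 25 mM Hepes, 0.01% Triton X-100, pH 7.0, preincubated 15 min at room temperature with compound. Reaction started with 40 uM arachidonic acid, 30 min at room temperature. Hydroperoxide measured by Fe-xylenol orange, 573/405 nm absorbance ratio.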
% is set by controls: 0 for no effect and ±100 for the full control effect; potency is the fitted concentration of half-maximal effect.

| SMILES | activity change, negative = inhibition | Potency |
| --- | --- | --- |
| C=CCNc1ncnc2c1ncn2[C@H]1CN(Cc2ccc(-c3ccccc3)cc2)C[C@@H](CO)O1 | inactive: -9.85% | – |
| COc1cc(Br)cc2cc(-c3nc(-c4ccccc4C)no3)c(=O)oc12 | – | inconclusive: 39.8 µM [inhibitor, partial curve, poor fit] |
| COC1CCN(C(=O)c2cnc3c(c2)N(Cc2ccccc2)CCC3)CC1 | – | inconclusive: 28.2 µM [inhibitor, full curve] |
| Cc1cc(S(=O)(=O)ON2C(=O)c3ccccc3C2=O)ccc1F | – | inconclusive: 35.5 µM [inhibitor, partial curve, poor fit] |
| COc1ccc(-c2noc(N3CCC(C(=O)Nc4ccc(F)cc4Cl)CC3)n2)cc1 | – | inconclusive: 112 µM [inhibitor, partial curve, poor fit] |
| CCc1c(C)sc(NC(=O)c2cc(C)on2)c1C#N | inactive: -25.9% | – |
| COc1ccc(C(O)c2nc(-c3ccoc3)cs2)cc1 (configuration not stated) | – | inconclusive: 50.1 µM [inhibitor, partial curve, poor fit] |
| N#C/C(=C/c1cc2ccccc2o1)c1nc2ccccc2[nH]1 | – | inconclusive: 44.7 µM [inhibitor, partial curve, poor fit] |
| N#Cc1cc(CN2CCCC(C(=O)Nc3cccc(-c4ccc(F)cc4)c3)C2)c[nH]1 (configuration not stated) | – | inconclusive: 56.2 µM [inhibitor, single point] |
| CCOc1ccccc1C1NC(=O)N(CC(=O)Nc2ccc3c(c2)CCC3)C2=C1C(=O)OC2 (configuration not stated) | – | inconclusive: 22.4 µM [inhibitor, full curve, poor fit] |
| O=C1C(=O)N(CCCn2ccnc2)C(c2ccc(Br)cc2)/C1=C(\O)c1ccc2c(c1)OCCO2 (configuration not stated) | inactive: 11.3% | – |
| Oc1c(Br)cc(Cl)cc1C=Nc1ccc(N2CCOCC2)cc1 | inconclusive: -39.7% [inhibitor] | – |
| COc1cccc(NC(=O)c2ccnc(-c3nnc4ccc(N5CCN(C)CC5)nn34)c2)c1 | – | inconclusive: 22.4 µM [inhibitor, full curve, poor fit] |
| COc1cc(CNCc2cccnc2)ccc1OCC(=O)NC(C)(C)C | inactive: -6.98% | – |
| Cc1ccccc1CSc1nnc(NC(=O)Cc2cccs2)s1 | inactive: -26.9% | – |
| O=C(c1ccc(N2CCCC2=O)cc1)N1CCN(c2ccccc2Cl)CC1 | – | inconclusive: 112 µM [inhibitor, single point] |
| NC(=S)N=Nc1ccc(O)cc1 | – | inconclusive: 56.2 µM [inhibitor, partial curve, poor fit] |
| Cc1cccc(NC(=S)NNC(=O)c2cc3c(s2)CCC(C)C3)c1C (configuration not stated) | – | inconclusive: 44.7 µM [inhibitor, partial curve, poor fit] |
| CCc1nc(Nc2ccccc2)c2nnn(Cc3ccccc3)c2n1 | inactive: -2.32% | – |
| O=C(O)c1ccc(CSc2ncnc3c2cnn3Cc2ccccc2)cc1 | inactive: -5.33% | – |
| Cc1ccnc(N2CCC(C(=O)Nc3ccc4c(c3)CCC4)CC2)n1 | – | inconclusive: 89.1 µM [inhibitor, single point] |
| O=C(c1ccc(F)cc1)N1CCC2(CC1)CN(Cc1ccccc1)CC2CO (configuration not stated) | – | inconclusive: 79.4 µM [inhibitor, single point] |
| O=C(C1CCCN(Cc2ccccc2)C1)N1CCCCC1 (configuration not stated) | – | inconclusive: 1.12 µM [inhibitor, full curve, poor fit] |

| SMILES | activity change, negative = inhibition | Potency |
| --- | --- | --- |
| COC(=O)c1ccc(OCc2cc(OC)c(Br)cc2OC)cc1 | inactive: 3.11% | – |
| CCc1ccc(NC(=O)NCCN2CCN(c3ccc(OC)cc3)CC2)cc1 | inactive: 0% | – |
| CCN1CCN(C(=S)c2ccc(Br)cc2)CC1 | inactive: -17.2% | – |
| COC(=O)c1c(NC(=O)CCCOc2ccc(C(C)(C)C)cc2)sc2c1C(C(=O)OC)CC2 (configuration not stated) | – | inconclusive: 112 µM [inhibitor, partial curve, poor fit] |
| CCN(CC)CCNC(=S)NC(=O)c1cn(-c2ccccc2)nc1-c1ccc(OC)cc1 | – | active: 44.7 µM |
| CCN1c2cc(C(=O)Nc3ccc(-n4ccnc4)cc3)ccc2C(=O)N2CCCCCC21 (configuration not stated) | inactive: 57.4% | – |
| O=C(/C=C/c1ccc(F)cc1)NC(=S)NNC(=O)[C@H]1C[C@@H]1c1ccccc1 | – | inconclusive: 56.2 µM [inhibitor, partial curve, poor fit] |
| O=C(Nc1ccccc1)c1nn(Cc2ccccc2)c(=O)c2ccccc12 | inactive: 1.7% | – |
| O=C(C1CCCC1)N(Cc1ccc2cc[nH]c2c1)C1CC1 | inactive: -9.69% | – |
| COc1cc(C(=O)Nc2ccc3c(c2)OCO3)ccc1-n1cnnn1 | inactive: 2.22% | – |
| CCOC(=O)C1CCN(C(=O)c2ccc(OCC(=O)Nc3cccc(C(F)(F)F)c3)c(OC)c2)CC1 | inactive: 7.59% | – |
| COCCCNc1nc2c(S(=O)(=O)c3c(C)cc(C)cc3C)nnn2c2ccccc12 | – | inconclusive: 39.8 µM [inhibitor, partial curve, poor fit] |
| COc1ccc(NC(=O)Cn2ccc3ccc(Cl)cc32)c(OC)c1 | inactive: -29.3% | – |
| O=S1(=O)CC(N2CCN(CCO)CC2)CN1Cc1cn(Cc2ccc(C(F)(F)F)cc2)nn1 (configuration not stated) | – | inconclusive: 17.8 µM [inhibitor, full curve] |
| CCN1CCN(CCOc2ccc3c(C)c(-c4ccc(OC)c(OC)c4)c(=O)oc3c2)CC1 | – | inconclusive: 20 µM [inhibitor, full curve] |
| O=C(Cc1ccc(Cl)cc1)NC1C2CC3CC(C2)CC1C3 (configuration not stated) | – | inconclusive: 50.1 µM [inhibitor, partial curve, poor fit] |
| CC(=O)NC(c1cc(F)c2cccnc2c1O)C1CC1 (configuration not stated) | inactive: -1.9% | – |
| O=C(O)c1cc2ncc(-c3[nH]ncc3[N+](=O)[O-])cn2n1 | inactive: -0.877% | – |
| CCOC(=O)COc1c(OC)cc(Cl)cc1C1Nc2ccccc2C(=O)N1c1cccc(C)c1 (configuration not stated) | inactive: 1.48% | – |
| CCn1c(SCc2ccc(C)cc2)nnc1C1CCN(S(=O)(=O)c2ccc(OC)cc2)CC1 | inactive: 0% | – |
| CN(C)c1ccc(O)c2c1CC1CC3[C@@H](N(C)C)C(=O)C(C(N)=O)=C(O)[C@]3(O)C(=O)C1=C2O (some centres not stated) | – | inconclusive: 63.1 µM [inhibitor, partial curve, poor fit] |
| Nc1nnnn1NCc1c(OCc2ccc(Cl)cc2Cl)ccc2ccccc12 | – | inconclusive: 28.2 µM [inhibitor, partial curve, poor fit] |
| Cc1ccc(NC(=O)CCc2c(C)[nH]n(-c3ccc(F)cc3)c2=O)cc1F | – | inconclusive: 50.1 µM [inhibitor, single point] |

| SMILES | activity change, negative = inhibition | Potency |
| --- | --- | --- |
| C/C=C1\NC(=O)[C@H](C)NC(=O)[C@@H](NC(=O)[C@H](Cc2ccc(O)cc2)NC(=O)[C@@H](NC(=O)/C(C)=C/C)C(C)C)[C@@H](C)OC(=O)[C@H](CCCc2ccc(O)cc2)NC(=O)[C@@H](CCC(=O)OC)NC1=O (Tigloyl-VYTA[Dhb][dE](OMe)[bishTyr]; ester 3-C) | – | inconclusive: 100 µM [inhibitor, single point] |
| CCOc1cc(/C=C(/NC(C)=O)C(=O)O)cc(Cl)c1OCc1cccc(Br)c1 | – | inconclusive: 141 µM [inhibitor, single point] |
| CC(=O)Nc1nc(SCc2ccc(Cl)cc2Cl)n[nH]1 | inactive: -9.87% | – |
| O=C(c1ccc(Br)o1)N1CCN(c2ccc3nnc(-c4ccccc4)n3n2)CC1 | – | inconclusive: 79.4 µM [inhibitor, single point] |
| O=C(O)c1cc2cccc(S(=O)(=O)N3CCOCC3)c2cc1O | – | inconclusive: 28.2 µM [inhibitor, single point] |
| O=C(/C=C/c1ccccc1)NC(=S)N1CCSCC1 | – | inconclusive: 56.2 µM [inhibitor, partial curve, poor fit] |
| Cc1ccc(NC(=S)/N=C(\N)Nc2nc(C)c3cc(C)ccc3n2)c(C)c1 | – | inconclusive: 44.7 µM [inhibitor, partial curve] |
| COc1ccc(C2=Nc3ccccc3NC(=O)C2N(CCc2cc(OC)cc(OC)c2)C(C)=O)cc1 (configuration not stated) | – | inconclusive: 44.7 µM [inhibitor, partial curve, poor fit] |
| O=C(NCc1ccco1)[C@@H]1CSC2c3ccccc3C(=O)N21 (some centres not stated) | inactive: -1.02% | – |
| COc1ccc(OC)c2sc(NC(=O)C3=COCCO3)nc12 | – | inconclusive: 126 µM [inhibitor, single point] |
| CN(C)/C=N/c1c(C#N)cnn1-c1ccc(C(F)(F)F)cn1 | inactive: -0.793% [at 57.4 µM] | – |
| COCCN1CCCCCC(O)c2cc(C(=O)NCc3nc4ccccc4n3C)ccc21 (configuration not stated) | inactive: 83% | – |
| Nc1n[nH]c(CO)n1 | – | inconclusive: 35.5 µM [inhibitor, single point] |
| Cc1ccc(COCCN2CCN(S(=O)(=O)c3ccc(C)cc3)CCC2=O)cc1 | – | inconclusive: 0.398 µM [inhibitor, full curve, poor fit] |
| COc1ccc(-c2c(C)c3ccc(O)c(CN4CCOCC4)c3oc2=O)cc1 | – | inconclusive: 56.2 µM [inhibitor, partial curve, poor fit] |
| O=C1CCCC2=C1C(c1ccncc1)Nc1ccccc1N2 (configuration not stated) | – | inconclusive: 35.5 µM [inhibitor, single point] |
| CCOC(=O)c1cc2cc(C(=O)O)ccc2[nH]1 | – | active: 15.8 µM |
| N/N=C(\c1ccccc1)c1cc(Br)ccc1N | – | inconclusive: 50.1 µM [inhibitor, partial curve, poor fit] |
| Nc1nc2c(s1)CCCCCCCCCC2 | – | inconclusive: 31.6 µM [inhibitor, partial curve, poor fit] |
| CCC1S/C(=N/N=C/c2ccco2)N(Cc2ccccc2)C1=O (configuration not stated) | – | inconclusive: 44.7 µM [inhibitor, partial curve, poor fit] |
| CCOCc1c(C(=O)OCC(=O)Nc2ccccc2C(N)=O)oc2ccccc12 | – | inconclusive: 44.7 µM [inhibitor, partial curve, poor fit] |

Whole records as entered above. Values in the order: activity change, negative = inhibition | Potency
COc1ccc(C2=Nc3ccccc3NC(=O)C2N(CCc2cc(OC)cc(OC)c2)C(C)=O)cc1 (configuration not stated) as listed: – | inconclusive: 44.7 µM [inhibitor, partial curve, poor fit]
Nc1n[nH]c(CO)n1 as listed: – | inconclusive: 35.5 µM [inhibitor, single point]
COc1ccc(OC)c2sc(NC(=O)C3=COCCO3)nc12 as listed: – | inconclusive: 126 µM [inhibitor, single point]
